Where no end group is shown, it is not given here. [ ]: non-standard residue; d: D form. sY = N[C@@H](Cc1ccc(OS(=O)(=O)O)cc1)C(=O)O

The source of these data is patent US6403864B1, “Precursor polypeptide of a plant growth factor, a gene encoding a precursor polypeptide of a plant growth factor and a method for promotion of plant growth” (Nagoya University, priority 1999, dated 2002).

This data set concerns rice Oc cells. The data set can be described thus: LC-MS measurement of PSK-α and its analogs accumulated in conditioned medium of control or transgenic Oc cells. Format: cell-based. To be noted: for Accumulation of PSKs in conditioned medium: one week cultivation, mean of three experiments ± SD; for Total amount of [Ser^4]PSK-α and -β relative to wild type PSK-α and -β: [Ser^4]mutant transformant CM; for Concentration in CM of the sense transformant relative to control: sense transformant vs control. Here is the method:
The amounts of PSK-α and its analogs, released into medium by wild type strain or transformant, was measured by liquid chromatography/ mass spectrometry (LC-MS) analysis. Conditioned medium (CM) derived from 14-day cultured wild or transformed Oc cells was chromatographed on DEAE Sephadex A-25 column. PSK-α and PSK-β contained in 800 and 1,200 mM KCl fractions were adsorbed on Sep-Pak Vac Cartridges, eluted with 30% acetonitrile containing 0.1 % trifluoroacetic acid, and lyophilized. Mass spectra were obtained using a Fisons VG platform quadruple mass spectrometer with electrospray ionization interfaced to a Jasco PU980 HPLC system. The fractions containing PSKs were dissolved in 200 μl of water and separated on a reverse-phase HPLC column (4.6×250 mm) with 10% acetonitrile containing 0.1% trifluoroacetic acid at 1.0 ml/min. The pseudomolecular ions of PSKs were monitored by scanning every 1.9 s in the selective ion monitoring mode. Amino acid sequences of the peptides were determined by Applied Biosystems model 490 sequencer.
Furthermore, OsPSK cDNA was introduced in sense and antisense orientation into Oc cells using the same binary vector. Then the amounts of PSK-α and -β were analyzed by LC-MS. The control or transformed Oc cells (0.8 g) were planted in 100 ml of fresh medium, and the amounts of PSK-α and its analogs were analyzed after one week cultivation. The results indicated by the average values of three independent experiments with standard deviations were shown in Table 1 (unit of concentration: nM). PSK-α and -β accumulated in the CM of the sense transformant were 1.6 times as concentrated as in the control. The increase of PSK secretion was proven to be caused by introduction of the gene. The amounts of PSK-α and -β accumulated in the antisense transformant CM were less than 60% of the mean control level, indicating decrease of PSK secretion.

Setting [1] is: Antisense OsPSK transformed Oc cells.
The mark [2] stands for this setting: Control Oc cells, 0.8 g cells in 100 ml fresh medium.
The mark [3] stands for this setting: Sense OsPSK transformed Oc cells.
Where [4] appears, read: [Ser^4]mutant cDNA transformed Oc cells.

For Y(SO3H)IY(SO3H)SQ [[Ser^4]PSK-α], the “Total amount of [Ser^4]PSK-α and -β relative to wild type PSK-α and -β” value is “about 34%”. Also, under setting [1], the “Accumulation of PSKs in conditioned medium” value (“Accumulation of PSKs” below) is reported as 0 nM. Under setting [2], the “Accumulation of PSKs” value stood at 0 nM. For the same substance, under setting [3], the “Accumulation of PSKs” value turned out to be 0 nM. Moreover, the “Accumulation of PSKs” value under setting [4] was 3.1 ± 0.3 nM.
Turning to [sY]I[sY]T [PSK-β], the “Concentration in CM of the sense transformant relative to control” value is recorded as 1.6 times. For the same substance, the “Accumulation of PSKs” value under setting [1] stood at 175.8 ± 15.4 nM. For the same substance, under setting [2], the “Accumulation of PSKs” value amounted to 332.7 ± 20.1 nM. In addition, under setting [3], the “Accumulation of PSKs” value was 555.7 ± 31.1 nM. Also, the “Accumulation of PSKs” value under setting [4] is listed as 302.5 ± 15.8 nM.
As for Y(SO3H)IY(SO3H)S [[Ser^4]PSK-β], the “Total amount of [Ser^4]PSK-α and -β relative to wild type PSK-α and -β” value is “about 34%”. In addition, the “Accumulation of PSKs” value under setting [1] came out at 0 nM. Also, the “Accumulation of PSKs” value under setting [2] was found to be 0 nM. The “Accumulation of PSKs” value under setting [3] came to 0 nM. Besides, the “Accumulation of PSKs” value under setting [4] is 105.2 ± 8.9 nM.
As for [sY]I[sY]TQ [PSK-α], the “Concentration in CM of the sense transformant relative to control” value worked out at 1.6 times. In addition, the “Accumulation of PSKs” value under setting [1] amounted to 7.3 ± 0.4 nM. The “Accumulation of PSKs” value under setting [2] is 12.6 ± 1.1 nM. In addition, under setting [3], the “Accumulation of PSKs” value is listed as 21.0 ± 1.9 nM. For the same substance, the “Accumulation of PSKs” value under setting [4] is listed as 11.5 ± 0.9 nM.
